According to PubChem BioAssay AID1487 (National Center for Advancing Translational Sciences (NCATS), 2009):
The list shows a part of the results. Shown are side measurements of this screen, not its main read-out; they come without a call. Compounds called inactive in the main read-out are mostly missing here. Words in brackets tell the shape of the fitted curve; partial curves, single points and poor fits give uncertain potencies.

Assay: qHTS Assay for Modulators of Lamin A Splicing
Settings: HeLa LMNA splicing GFP/RFP minigene ratio, 48 h
How it was run: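 S3 HeLa cells stably expressing lamin A-EGFP splicing minigene plus DsRed2, 600 cells/well, 48 h compound exposure at 37C. Laser-scanning cytometry; analysed as GFP (500-530 nm)/RFP (575-640 nm) total intensity ratio; 0.5% DMSO vehicle.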

[1] = measured here: RFP viability control channel
[2] = measured here: GFP splicing reporter channel

Row | Structure (SMILES) | AC50 [1] | AC50 [2]
1 | CNC(=S)SCCOc1ccccc1C | 0.794 µM [rising, full curve, poor fit] | 
2 | COc1ccc(C(=O)NNC(=O)CCCCC(=O)NNC(=O)c2ccc(OC)cc2)cc1 | 0.00316 µM [falling, full curve] | 
3 | O=C(c1cccc(Cl)c1)N1CCC(=O)N(C(COCc2ccccc2)Cc2ccccc2)CC1 (stereo not given) | 35.5 µM [rising, single point] | 35.5 µM [rising, single point]
4 | C=CCNC(=S)Nc1ccc(OC(F)F)c(Cl)c1 |  | 35.5 µM [falling, single point]
5 | COc1cc(C2C3=C(CC(C)(C)CC3=O)OC3=C2C(=O)CC(C)(C)C3)cc([N+](=O)[O-])c1O | 0.708 µM [falling, single point] | 
6 | CCOC(=O)c1ccc2c(c1)N(Cc1ccccc1)C(=O)c1ccccc1S2 | 11.2 µM [rising, partial curve, poor fit] | 
7 | COc1ccc(CCNC(=O)CCSCc2ccccc2Cl)cc1OC |  | 0.00631 µM [rising, full curve, poor fit]
8 | O=C(Nc1cc(Cl)cc(Cl)c1)c1ccc(F)c(S(=O)(=O)NC2CCCCC2)c1 | 25.1 µM [falling, partial curve, poor fit] | 35.5 µM [falling, single point]
9 | NS(=O)(=O)c1ccc(NC(=O)COC(=O)CCc2ccccc2)cc1 | 0.00316 µM [falling, full curve, poor fit] | 
10 | O=C(NC1=NCCS1)c1cccc(OC(F)F)c1 |  | 5.62 µM [rising, single point]
11 | Cc1ccc(C(=O)Nc2ccc3cn[nH]c3c2)cc1S(=O)(=O)N1CCCCC1 | 12.6 µM [rising, partial curve] | 
12 | CCn1c(=O)c(C(=O)NCc2cccnc2)c(O)c2ccccc21 | 17.8 µM [rising, single point] | 15.8 µM [rising, single point]
13 | CNC(=O)c1cccn1-c1ccsc1C(=O)OC | 0.0355 µM [falling, full curve, poor fit] | 
14 | CCOC(=O)c1ccc2c(c1)nc(C1CCN(S(=O)(=O)c3cccs3)CC1)n2CC | 22.4 µM [rising, single point] | 
15 | O=C(NC1CC1)C1CCCN1C(=O)NC1CCCCC1 (stereo not given) |  | 35.5 µM [rising, single point]
16 | CC(C)Cn1c2c(c(=O)[nH]c1=O)C(C(F)(F)F)(C(F)(F)F)N=C(CCC1CCCCC1)N2 | 0.0158 µM [rising, full curve, poor fit] | 1.58 µM [rising, full curve]
17 | CC(C)NC(=O)c1onc(CSc2ccc(Cl)cc2)c1C(=O)O |  | 3.55 µM [falling, single point]
18 | O=C(c1ccco1)N1CCN(C(=O)C2CC(c3ccc(Cl)c(Cl)c3)=NO2)CC1 (stereo not given) | 35.5 µM [rising, single point] | 
19 | Cc1ccc(NC(=O)CCNS(=O)(=O)c2cc(Br)cnc2N)cc1Cl | 25.1 µM [rising, single point] | 12.6 µM [rising, single point]
20 | Cc1nc(Nc2ccc(S(=O)(=O)N3CCCCC3C)cc2)c2nnn(Cc3ccccc3)c2n1 (stereo not given) | 7.94 µM [rising, partial curve] | 
21 | Cc1ccc(NC(=O)CN2CCC(NC(=O)C3CCCCC3)CC2)c(Br)c1 |  | 35.5 µM [rising, single point]
22 | CCN(Cc1ccccc1)C(c1cccs1)c1nnnn1C1CCCCC1 (stereo not given) | 35.5 µM [rising, single point] | 14.1 µM [rising, single point]
23 | Cc1cc(O)ccc1N/C=C(\C#N)c1nc2ccccc2o1 | 7.08 µM [rising, partial curve, poor fit] | 
24 | OCCOCCN1CCN(C(c2ccccc2)c2ccc(Cl)cc2)CC1 (stereo not given) | 31.6 µM [rising, single point] | 8.91 µM [falling, partial curve, poor fit]
25 | CC(=O)Cc1nsc(NC(=O)c2ccc(-c3ccc(Cl)c(C(F)(F)F)c3)o2)n1 | 35.5 µM [rising, single point] | 35.5 µM [rising, single point]
26 | O=C(CC1N=C2c3ccccc3N=C(SCc3cccc(F)c3)N2C1=O)NCc1ccc2c(c1)OCO2 (stereo not given) | 0.0631 µM [falling, full curve] | 
27 | CCc1ccc(N(C(=O)c2snc(C(N)=O)c2N)C(C(=O)NCCC(C)C)c2c[nH]c3ccccc23)cc1 (stereo not given) | 17.8 µM [falling, single point] | 15.8 µM [falling, partial curve, poor fit]

Row | Structure (SMILES) | AC50 [1] | AC50 [2]
28 | O=C(Nc1ccc(Cc2ccncc2)cc1)C1CCC(N2C(=O)C3C4C=CC(C5CC45)C3C2=O)CC1 (stereo not given) | 14.1 µM [rising, partial curve] | 35.5 µM [rising, single point]
29 | O=C(O)c1ccc(N/N=C/c2ccc(-c3ccccc3)cc2)cc1 |  | 0.01 µM [rising, single point]
30 | O=[N+]([O-])c1cc([N+](=O)[O-])c2cccnc2c1Oc1ccccc1O | 1.12 µM [rising, partial curve] | 
31 | COc1ccc(OC)c(S(=O)(=O)N(C)CC(=O)N2CCN(c3cccc(Cl)c3)CC2)c1 | 31.6 µM [rising, single point] | 
32 | Cc1ccc(OS(=O)(=O)c2ccccc2)c(/C=N/N=C2\NC(=O)C(C)S2)c1 (stereo not given) | 14.1 µM [rising, single point] | 
33 | CC(NC(=O)/C(=C/c1ccc2c(c1)OCO2)NC(=O)c1cccc([N+](=O)[O-])c1)C(=O)O (stereo not given) | 0.316 µM [falling, full curve, poor fit] | 0.447 µM [falling, full curve, poor fit]
34 | Cc1ccc(N2CCN(C(=O)c3cc(S(=O)(=O)N4CCCCC4)c[nH]3)CC2)c(C)c1 |  | 22.4 µM [falling, single point]
35 | Oc1ccc(CN2CCCCC2)c2cccnc12 | 35.5 µM [rising, single point] | 
36 | Cc1c2cnn(-c3ccccc3)c(=O)c2c(C)n1CCCC(=O)N1CCN(c2ncccn2)CC1 | 20 µM [rising, single point] | 
37 | O=C(CN1C(=O)NC2(CCCc3ccccc32)C1=O)Nc1cccc(S(=O)(=O)N2CCCCC2)c1 (stereo not given) | 15.8 µM [rising, partial curve] | 35.5 µM [rising, single point]
38 | COCCOC(=O)C1=C(C)NC2=C(C(=O)CC(c3cccs3)C2)C1c1ccsc1 (stereo not given) | 35.5 µM [rising, single point] | 
39 | CCNc1nc(NCC)nc(NC(N)=S)n1 |  | 0.0112 µM [falling, full curve, poor fit]
40 | Cn1c(Oc2ccccc2NCc2cc(Br)ccc2O)cc(=O)n(C)c1=O | 35.5 µM [rising, single point] | 
41 | O=S(=O)(NCCSc1nnc(-c2ccco2)n1-c1ccccc1)c1ccccc1 | 31.6 µM [rising, single point] | 31.6 µM [rising, single point]
42 | Cn1c(C(=O)Nc2ccc3c(c2)OCCO3)cc2c(=O)n(C)c3ccccc3c21 | 8.91 µM [rising, partial curve] | 
43 | O=C1CCc2cc(S(=O)(=O)N3CCN(c4ccccc4F)CC3)ccc2N1 | 15.8 µM [rising, single point] | 
44 | COc1ccc(OC)c(NC2=C(Cl)C(=O)N(Cc3ccccc3)C2=O)c1 | 11.2 µM [falling, partial curve, poor fit] | 3.55 µM [rising, single point]
45 | O=C(CSc1nccn1-c1ccccc1)NCc1ccc(F)cc1 | 0.501 µM [falling, full curve, poor fit] | 1.26 µM [falling, full curve]
46 | COc1ccc(NC(=O)ON=C2c3ccccc3-c3ccccc32)cc1 |  | 11.2 µM [rising, partial curve, poor fit]
47 | CC(=O)N(c1ccccc1)C(C)c1nc(C#N)c(C#N)nc1C (stereo not given) | 11.2 µM [rising, partial curve, poor fit] | 11.2 µM [rising, partial curve, poor fit]
48 | Cn1c(SCc2nc3ccccc3c(=O)[nH]2)nc2ccccc21 | 0.251 µM [falling, partial curve] | 0.0794 µM [falling, partial curve, poor fit]
49 | CN1CCN(c2nc(Nc3ccc(O)cc3)nc3ccccc23)CC1 | 6.31 µM [falling, single point] | 3.16 µM [falling, single point]
50 | COc1cccc(C2=NOC(C(=O)Nc3cccnc3Cl)C2)c1 (stereo not given) | 3.16 µM [rising, partial curve] | 5.01 µM [rising, partial curve, poor fit]
51 | Cc1ccc(CNC(=O)CSc2nc3c(sc4ccccc43)c(=O)n2CCCN2CCCC2)cc1 | 31.6 µM [rising, single point] | 0.355 µM [rising, partial curve, poor fit]
52 | C=C(C)COc1ccc(-c2nc(N)nc(C)c2Oc2ccccc2OC)c(O)c1 | 25.1 µM [rising, single point] | 11.2 µM [rising, partial curve, poor fit]
53 | CCCCCCCC(=O)O | 0.000891 µM [falling, full curve, poor fit] | 0.000891 µM [falling, full curve, poor fit]

12 entries from above, sorted by SMILES length, ascending.
Row | Structure (SMILES) | AC50 [1] | AC50 [2]
35 | Oc1ccc(CN2CCCCC2)c2cccnc12 | 35.5 µM [rising, single point] | 
50 | COc1cccc(C2=NOC(C(=O)Nc3cccnc3Cl)C2)c1 (stereo not given) | 3.16 µM [rising, partial curve] | 5.01 µM [rising, partial curve, poor fit]
48 | Cn1c(SCc2nc3ccccc3c(=O)[nH]2)nc2ccccc21 | 0.251 µM [falling, partial curve] | 0.0794 µM [falling, partial curve, poor fit]
47 | CC(=O)N(c1ccccc1)C(C)c1nc(C#N)c(C#N)nc1C (stereo not given) | 11.2 µM [rising, partial curve, poor fit] | 11.2 µM [rising, partial curve, poor fit]
43 | O=C1CCc2cc(S(=O)(=O)N3CCN(c4ccccc4F)CC3)ccc2N1 | 15.8 µM [rising, single point] | 
41 | O=S(=O)(NCCSc1nnc(-c2ccco2)n1-c1ccccc1)c1ccccc1 | 31.6 µM [rising, single point] | 31.6 µM [rising, single point]
30 | O=[N+]([O-])c1cc([N+](=O)[O-])c2cccnc2c1Oc1ccccc1O | 1.12 µM [rising, partial curve] | 
42 | Cn1c(C(=O)Nc2ccc3c(c2)OCCO3)cc2c(=O)n(C)c3ccccc3c21 | 8.91 µM [rising, partial curve] | 
32 | Cc1ccc(OS(=O)(=O)c2ccccc2)c(/C=N/N=C2\NC(=O)C(C)S2)c1 (stereo not given) | 14.1 µM [rising, single point] | 
51 | Cc1ccc(CNC(=O)CSc2nc3c(sc4ccccc43)c(=O)n2CCCN2CCCC2)cc1 | 31.6 µM [rising, single point] | 0.355 µM [rising, partial curve, poor fit]
31 | COc1ccc(OC)c(S(=O)(=O)N(C)CC(=O)N2CCN(c3cccc(Cl)c3)CC2)c1 | 31.6 µM [rising, single point] | 
33 | CC(NC(=O)/C(=C/c1ccc2c(c1)OCO2)NC(=O)c1cccc([N+](=O)[O-])c1)C(=O)O (stereo not given) | 0.316 µM [falling, full curve, poor fit] | 0.447 µM [falling, full curve, poor fit]
